The target in assay [1] is T1, AtHYL1:FLAG (A. thaliana) (UniProt O04492).
T1 sequence: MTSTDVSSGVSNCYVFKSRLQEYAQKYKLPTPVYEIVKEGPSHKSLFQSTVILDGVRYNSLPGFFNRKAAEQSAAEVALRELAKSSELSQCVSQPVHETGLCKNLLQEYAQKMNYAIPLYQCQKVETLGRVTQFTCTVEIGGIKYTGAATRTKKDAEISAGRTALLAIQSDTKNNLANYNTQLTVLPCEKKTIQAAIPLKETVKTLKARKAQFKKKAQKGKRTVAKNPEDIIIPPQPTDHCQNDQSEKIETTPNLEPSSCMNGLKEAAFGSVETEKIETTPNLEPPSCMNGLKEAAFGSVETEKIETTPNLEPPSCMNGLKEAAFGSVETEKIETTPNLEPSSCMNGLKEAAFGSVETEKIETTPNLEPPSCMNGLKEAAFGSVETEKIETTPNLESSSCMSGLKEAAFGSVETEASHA
Nature of the assay: co-IP; nuclear protein lysate of 35-day leaves of transgenic plants, infiltrated with 1% formaldehyde; anti-FLAG magnetic beads overnight at 4°; washed four times with lysis buffer (300 mM NaCl, 0.75% Triton X-100, 0.15% SDS); western blot with anti-AtCBP20 and anti-AtCBP80. A general note: A western blot detects proteins with antibodies after separation by electrophoresis.

In another assay the target is T2, AtSE:FLAG (A. thaliana) (UniProt Q9ZVD0).
T2 sequence: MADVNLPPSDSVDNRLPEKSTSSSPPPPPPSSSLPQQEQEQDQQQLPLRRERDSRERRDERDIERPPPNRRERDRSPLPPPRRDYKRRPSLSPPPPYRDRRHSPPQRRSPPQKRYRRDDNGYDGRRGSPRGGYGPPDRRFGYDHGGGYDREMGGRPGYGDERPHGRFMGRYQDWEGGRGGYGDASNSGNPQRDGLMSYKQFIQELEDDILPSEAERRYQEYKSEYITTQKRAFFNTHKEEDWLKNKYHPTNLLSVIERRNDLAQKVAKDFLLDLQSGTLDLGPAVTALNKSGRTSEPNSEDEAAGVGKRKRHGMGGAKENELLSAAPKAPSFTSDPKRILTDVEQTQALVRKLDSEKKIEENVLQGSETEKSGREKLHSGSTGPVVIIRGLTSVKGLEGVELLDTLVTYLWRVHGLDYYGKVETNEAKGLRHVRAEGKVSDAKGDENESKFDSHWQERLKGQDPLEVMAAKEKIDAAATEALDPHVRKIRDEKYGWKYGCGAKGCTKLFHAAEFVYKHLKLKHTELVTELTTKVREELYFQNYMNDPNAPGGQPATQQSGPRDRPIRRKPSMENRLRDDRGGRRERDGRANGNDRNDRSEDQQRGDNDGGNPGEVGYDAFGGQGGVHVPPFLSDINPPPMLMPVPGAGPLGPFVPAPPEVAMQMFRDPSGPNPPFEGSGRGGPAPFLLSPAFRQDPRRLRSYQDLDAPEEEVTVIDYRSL
Described as above.

The target in assay [2] is T3, MBP-AtSE core (core fragment of SERRATE, residues 194-543, fused with maltose binding protein) (A. thaliana) (UniProt Q9ZVD0).
T3 sequence: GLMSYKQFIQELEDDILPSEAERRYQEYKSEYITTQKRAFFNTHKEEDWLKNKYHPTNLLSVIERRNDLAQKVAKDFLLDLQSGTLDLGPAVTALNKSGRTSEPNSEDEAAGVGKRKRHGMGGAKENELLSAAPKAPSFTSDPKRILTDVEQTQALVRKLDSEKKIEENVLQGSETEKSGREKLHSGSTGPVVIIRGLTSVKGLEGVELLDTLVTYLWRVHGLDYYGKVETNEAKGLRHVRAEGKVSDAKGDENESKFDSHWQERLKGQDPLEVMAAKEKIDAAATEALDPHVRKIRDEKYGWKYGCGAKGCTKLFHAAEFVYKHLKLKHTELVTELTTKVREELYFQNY
Nature of the assay: pull-down; MBP fusions from E. coli bound to amylose resin; incubated with [35S]-methionine-labelled in vitro translated proteins (AtCBP20 and AtCBP80 separately or together) in phosphate buffer (28 mM NaH2PO4, 72 mM Na2HPO4, 250 mM KCl, 0.5% Triton X-100) for 2 h at 4°C; eluted with 10 mM maltose; SDS-PAGE and image analyzer; only the target purified.

These are yes or no findings as the source states them, for the method shown. In cells and extracts the contact can be indirect. Some results given as binding are weak or reduced against the parent protein; the word gives no strength. Sequences can lack the tags named with a protein.

B1: AtCBP20 (endogenous, in plant nuclear lysate) (protein, UniProt Q9XFD1 1-257)
chain: MASLFKEQAKLSAYRDRRFSGTQEEFDEALRASTTVYIGNVSFYTTEEQLYELFSRAGEIKKIIMGLDKNTKTPCGFCFVLFYSREDTEDAVKYISGTILDDRPIRVDFDWGFQEGRQWGRGRSGGQVRDEYRTDYDPARGGYGKLVQKELEAQRQLVDYGTGSLGAYPQAAPTNYGNGRRGGGNYGQGGQNRHGRGDYHRKRQRDDDRYGRDNSRRNTDHESRRDTDSDMRPEKNPRFRESGDSDDDGEDDRKRRS
On to B1, for which the binding entry in assay [1] is on record as “no binding”; with AtSE:FLAG (A. thaliana), “binds”.

B2: [35S]-methionine-labeled AtCBP80 (protein, UniProt Q9SIU2 1-848)
chain: MSNWKTLLLRIGEKGPEYGTSSDYKDHIETCFGVIRREIERSGDQVLPFLLQCAEQLPHKIPLYGTLIGLLNLENEDFVQKLVESVHANFQVALDSGNCNSIRILLRFMTSLLCSKVIQPASLIVVFETLLSSAATTVDEEKGNPSWQPQADFYVICILSSLPWGGSELAEQVPDEIERVLVGIQAYLSIRKNSSTSGLNFFHNGEFESSLAEKDFVEDLLDRIQSLASNGWKLESVPRPHLSFEAQLVAGKFHELRPIKCMEQPSPPSDHSRAYSGKQKHDALTRYPQRIRRLNIFPANKMEDVQPIDRFVVEEYLLDVLFYLNGCRKECASYMANLPVTFRYEYLMAETLFSQILLLPQPPFKTLYYTLVIMDLCKALPGAFPAVVAGAVRALFEKISDLDMESRTRLILWFSHHLSNFQFIWPWEEWAFVLDLPKWAPKRVFVQEILQREVRLSYWDKIKQSIENATALEELLPPKAGPNFMYSLEEGKEKTEEQQLSAELSRKVKEKQTARDMIVWIEETIYPVHGFEVTLTIVVQTLLDIGSKSFTHLVTVLERYGQVFSKLCPDNDKQVMLLSQVSTYWKNNVQMTAVAIDRMMGYRLVSNQAIVRWVFSPENVDQFHVSDQPWEILGNALNKTYNRISDLRKDISNITKNVLVAEKASANARVELEAAESKLSLVEGEPVLGENPAKMKRLKSTVEKTGEAELSLRESLEAKEALLNRALSETEVLLLLLFQSFLGVLKERLPDPTKVRSVQDLKSIGAEDDKPSAMDVDSENGNPKKSCEVGEREQWCLSTLGYLTAFTRQYASEIWPHMEKLESEVFSGEDVHPLFLQAISSALQFPLH
modifications: [35S]-methionine labelled
For B2, the binding entry in assay [2] is listed as “binds”.

B3: AtCBP80 (endogenous, in plant nuclear lysate) (protein, UniProt Q9SIU2 1-848)
chain: MSNWKTLLLRIGEKGPEYGTSSDYKDHIETCFGVIRREIERSGDQVLPFLLQCAEQLPHKIPLYGTLIGLLNLENEDFVQKLVESVHANFQVALDSGNCNSIRILLRFMTSLLCSKVIQPASLIVVFETLLSSAATTVDEEKGNPSWQPQADFYVICILSSLPWGGSELAEQVPDEIERVLVGIQAYLSIRKNSSTSGLNFFHNGEFESSLAEKDFVEDLLDRIQSLASNGWKLESVPRPHLSFEAQLVAGKFHELRPIKCMEQPSPPSDHSRAYSGKQKHDALTRYPQRIRRLNIFPANKMEDVQPIDRFVVEEYLLDVLFYLNGCRKECASYMANLPVTFRYEYLMAETLFSQILLLPQPPFKTLYYTLVIMDLCKALPGAFPAVVAGAVRALFEKISDLDMESRTRLILWFSHHLSNFQFIWPWEEWAFVLDLPKWAPKRVFVQEILQREVRLSYWDKIKQSIENATALEELLPPKAGPNFMYSLEEGKEKTEEQQLSAELSRKVKEKQTARDMIVWIEETIYPVHGFEVTLTIVVQTLLDIGSKSFTHLVTVLERYGQVFSKLCPDNDKQVMLLSQVSTYWKNNVQMTAVAIDRMMGYRLVSNQAIVRWVFSPENVDQFHVSDQPWEILGNALNKTYNRISDLRKDISNITKNVLVAEKASANARVELEAAESKLSLVEGEPVLGENPAKMKRLKSTVEKTGEAELSLRESLEAKEALLNRALSETEVLLLLLFQSFLGVLKERLPDPTKVRSVQDLKSIGAEDDKPSAMDVDSENGNPKKSCEVGEREQWCLSTLGYLTAFTRQYASEIWPHMEKLESEVFSGEDVHPLFLQAISSALQFPLH
In the case of B3, the binding result in assay [1] is on record as “no binding”.

The values are drawn from paper PMC3902902.
